# The list shows a part of the results. Most entries show no effect beyond the scatter of the controls.
# The chains behind the UniProt entries cited, without tags or fusion partners. Where a name states a change or a piece, a line headed by the entry shows the natural chain unless it says otherwise.
# UniProt Q8R323, whole entry: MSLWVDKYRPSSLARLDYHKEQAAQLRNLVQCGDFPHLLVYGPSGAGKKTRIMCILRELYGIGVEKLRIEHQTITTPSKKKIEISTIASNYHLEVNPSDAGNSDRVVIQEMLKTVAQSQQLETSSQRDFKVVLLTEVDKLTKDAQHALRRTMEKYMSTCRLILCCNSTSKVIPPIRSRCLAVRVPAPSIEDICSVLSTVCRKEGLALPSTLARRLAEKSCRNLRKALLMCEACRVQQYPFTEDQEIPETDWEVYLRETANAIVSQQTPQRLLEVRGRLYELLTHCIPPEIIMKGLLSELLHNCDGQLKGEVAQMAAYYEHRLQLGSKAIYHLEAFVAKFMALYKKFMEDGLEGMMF
# UniProt Q8VEK6, whole entry: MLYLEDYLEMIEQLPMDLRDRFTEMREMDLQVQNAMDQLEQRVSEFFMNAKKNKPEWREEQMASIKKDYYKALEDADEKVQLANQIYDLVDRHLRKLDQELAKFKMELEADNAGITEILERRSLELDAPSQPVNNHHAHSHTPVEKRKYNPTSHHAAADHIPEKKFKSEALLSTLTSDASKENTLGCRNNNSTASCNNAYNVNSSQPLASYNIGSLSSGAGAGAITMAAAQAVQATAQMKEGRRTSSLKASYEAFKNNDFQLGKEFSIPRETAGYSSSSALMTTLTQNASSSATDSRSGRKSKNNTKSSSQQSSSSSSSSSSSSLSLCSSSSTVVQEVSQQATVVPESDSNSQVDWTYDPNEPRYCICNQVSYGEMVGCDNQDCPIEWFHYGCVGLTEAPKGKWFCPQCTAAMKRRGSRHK
# UniProt Q8R3S6: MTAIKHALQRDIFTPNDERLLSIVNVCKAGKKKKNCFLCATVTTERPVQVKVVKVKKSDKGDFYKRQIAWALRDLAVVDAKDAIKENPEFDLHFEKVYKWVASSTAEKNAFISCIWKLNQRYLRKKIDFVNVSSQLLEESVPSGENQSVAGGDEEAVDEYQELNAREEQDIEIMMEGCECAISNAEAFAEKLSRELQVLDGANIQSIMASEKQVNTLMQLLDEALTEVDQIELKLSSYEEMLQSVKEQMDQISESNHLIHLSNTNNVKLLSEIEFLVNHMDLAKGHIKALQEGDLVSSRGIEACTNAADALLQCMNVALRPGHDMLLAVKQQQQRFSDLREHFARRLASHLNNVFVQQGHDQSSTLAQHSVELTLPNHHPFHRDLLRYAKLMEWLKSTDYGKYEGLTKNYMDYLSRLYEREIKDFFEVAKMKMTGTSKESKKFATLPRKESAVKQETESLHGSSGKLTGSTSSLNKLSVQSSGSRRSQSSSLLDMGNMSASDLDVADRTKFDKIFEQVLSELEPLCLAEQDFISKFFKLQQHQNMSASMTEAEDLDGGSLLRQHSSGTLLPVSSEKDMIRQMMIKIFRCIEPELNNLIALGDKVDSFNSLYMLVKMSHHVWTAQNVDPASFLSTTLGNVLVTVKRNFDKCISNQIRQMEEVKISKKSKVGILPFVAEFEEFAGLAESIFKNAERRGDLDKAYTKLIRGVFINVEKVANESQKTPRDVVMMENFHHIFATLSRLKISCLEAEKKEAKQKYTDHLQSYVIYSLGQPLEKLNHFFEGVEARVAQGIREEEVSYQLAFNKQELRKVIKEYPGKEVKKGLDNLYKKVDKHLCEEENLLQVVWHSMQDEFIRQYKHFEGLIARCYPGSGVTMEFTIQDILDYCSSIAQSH
# UniProt Q8VCE4: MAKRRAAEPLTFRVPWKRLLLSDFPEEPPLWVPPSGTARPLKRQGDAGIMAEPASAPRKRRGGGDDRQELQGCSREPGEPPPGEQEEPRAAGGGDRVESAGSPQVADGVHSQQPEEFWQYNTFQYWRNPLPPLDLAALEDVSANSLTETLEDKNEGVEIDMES
# UniProt Q8VC31: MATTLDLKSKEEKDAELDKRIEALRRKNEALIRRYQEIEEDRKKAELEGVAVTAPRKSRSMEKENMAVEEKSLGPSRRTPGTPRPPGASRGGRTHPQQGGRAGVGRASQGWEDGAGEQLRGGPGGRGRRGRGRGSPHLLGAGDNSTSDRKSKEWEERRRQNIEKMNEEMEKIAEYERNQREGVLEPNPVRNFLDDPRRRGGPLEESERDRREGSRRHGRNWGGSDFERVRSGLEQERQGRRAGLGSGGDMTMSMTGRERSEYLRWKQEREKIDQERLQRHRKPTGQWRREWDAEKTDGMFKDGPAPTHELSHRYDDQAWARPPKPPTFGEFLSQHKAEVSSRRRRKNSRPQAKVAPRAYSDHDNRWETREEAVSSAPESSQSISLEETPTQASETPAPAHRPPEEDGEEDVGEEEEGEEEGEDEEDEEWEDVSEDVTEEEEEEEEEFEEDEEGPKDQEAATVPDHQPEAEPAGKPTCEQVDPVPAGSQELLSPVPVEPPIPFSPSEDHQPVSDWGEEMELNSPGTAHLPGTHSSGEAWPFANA
# UniProt Q8R3L8: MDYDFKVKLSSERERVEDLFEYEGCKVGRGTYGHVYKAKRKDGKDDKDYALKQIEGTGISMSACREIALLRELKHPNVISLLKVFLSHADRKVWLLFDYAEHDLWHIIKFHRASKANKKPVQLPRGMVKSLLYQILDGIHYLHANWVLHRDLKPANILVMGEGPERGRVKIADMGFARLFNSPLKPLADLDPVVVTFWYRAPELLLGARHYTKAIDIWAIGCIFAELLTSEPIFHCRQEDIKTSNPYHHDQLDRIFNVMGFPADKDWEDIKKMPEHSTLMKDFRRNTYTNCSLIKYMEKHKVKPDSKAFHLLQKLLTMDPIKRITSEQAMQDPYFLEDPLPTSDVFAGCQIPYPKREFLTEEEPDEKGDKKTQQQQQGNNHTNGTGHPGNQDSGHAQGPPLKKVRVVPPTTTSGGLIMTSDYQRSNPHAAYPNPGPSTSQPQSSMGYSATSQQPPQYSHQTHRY
# UniProt Q8VCH8: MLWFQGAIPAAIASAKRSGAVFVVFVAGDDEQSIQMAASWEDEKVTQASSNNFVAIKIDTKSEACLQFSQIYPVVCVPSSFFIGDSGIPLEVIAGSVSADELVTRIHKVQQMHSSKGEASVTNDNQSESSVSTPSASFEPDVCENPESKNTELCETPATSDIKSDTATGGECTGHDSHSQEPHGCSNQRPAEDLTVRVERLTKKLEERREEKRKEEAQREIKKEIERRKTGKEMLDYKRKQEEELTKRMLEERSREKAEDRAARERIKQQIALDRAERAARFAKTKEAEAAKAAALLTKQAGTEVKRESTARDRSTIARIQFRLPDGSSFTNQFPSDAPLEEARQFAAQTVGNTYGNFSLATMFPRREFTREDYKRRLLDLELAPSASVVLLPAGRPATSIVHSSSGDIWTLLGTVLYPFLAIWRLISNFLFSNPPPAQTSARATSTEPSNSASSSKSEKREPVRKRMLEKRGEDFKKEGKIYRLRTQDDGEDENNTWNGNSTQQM
# UniProt Q8R418: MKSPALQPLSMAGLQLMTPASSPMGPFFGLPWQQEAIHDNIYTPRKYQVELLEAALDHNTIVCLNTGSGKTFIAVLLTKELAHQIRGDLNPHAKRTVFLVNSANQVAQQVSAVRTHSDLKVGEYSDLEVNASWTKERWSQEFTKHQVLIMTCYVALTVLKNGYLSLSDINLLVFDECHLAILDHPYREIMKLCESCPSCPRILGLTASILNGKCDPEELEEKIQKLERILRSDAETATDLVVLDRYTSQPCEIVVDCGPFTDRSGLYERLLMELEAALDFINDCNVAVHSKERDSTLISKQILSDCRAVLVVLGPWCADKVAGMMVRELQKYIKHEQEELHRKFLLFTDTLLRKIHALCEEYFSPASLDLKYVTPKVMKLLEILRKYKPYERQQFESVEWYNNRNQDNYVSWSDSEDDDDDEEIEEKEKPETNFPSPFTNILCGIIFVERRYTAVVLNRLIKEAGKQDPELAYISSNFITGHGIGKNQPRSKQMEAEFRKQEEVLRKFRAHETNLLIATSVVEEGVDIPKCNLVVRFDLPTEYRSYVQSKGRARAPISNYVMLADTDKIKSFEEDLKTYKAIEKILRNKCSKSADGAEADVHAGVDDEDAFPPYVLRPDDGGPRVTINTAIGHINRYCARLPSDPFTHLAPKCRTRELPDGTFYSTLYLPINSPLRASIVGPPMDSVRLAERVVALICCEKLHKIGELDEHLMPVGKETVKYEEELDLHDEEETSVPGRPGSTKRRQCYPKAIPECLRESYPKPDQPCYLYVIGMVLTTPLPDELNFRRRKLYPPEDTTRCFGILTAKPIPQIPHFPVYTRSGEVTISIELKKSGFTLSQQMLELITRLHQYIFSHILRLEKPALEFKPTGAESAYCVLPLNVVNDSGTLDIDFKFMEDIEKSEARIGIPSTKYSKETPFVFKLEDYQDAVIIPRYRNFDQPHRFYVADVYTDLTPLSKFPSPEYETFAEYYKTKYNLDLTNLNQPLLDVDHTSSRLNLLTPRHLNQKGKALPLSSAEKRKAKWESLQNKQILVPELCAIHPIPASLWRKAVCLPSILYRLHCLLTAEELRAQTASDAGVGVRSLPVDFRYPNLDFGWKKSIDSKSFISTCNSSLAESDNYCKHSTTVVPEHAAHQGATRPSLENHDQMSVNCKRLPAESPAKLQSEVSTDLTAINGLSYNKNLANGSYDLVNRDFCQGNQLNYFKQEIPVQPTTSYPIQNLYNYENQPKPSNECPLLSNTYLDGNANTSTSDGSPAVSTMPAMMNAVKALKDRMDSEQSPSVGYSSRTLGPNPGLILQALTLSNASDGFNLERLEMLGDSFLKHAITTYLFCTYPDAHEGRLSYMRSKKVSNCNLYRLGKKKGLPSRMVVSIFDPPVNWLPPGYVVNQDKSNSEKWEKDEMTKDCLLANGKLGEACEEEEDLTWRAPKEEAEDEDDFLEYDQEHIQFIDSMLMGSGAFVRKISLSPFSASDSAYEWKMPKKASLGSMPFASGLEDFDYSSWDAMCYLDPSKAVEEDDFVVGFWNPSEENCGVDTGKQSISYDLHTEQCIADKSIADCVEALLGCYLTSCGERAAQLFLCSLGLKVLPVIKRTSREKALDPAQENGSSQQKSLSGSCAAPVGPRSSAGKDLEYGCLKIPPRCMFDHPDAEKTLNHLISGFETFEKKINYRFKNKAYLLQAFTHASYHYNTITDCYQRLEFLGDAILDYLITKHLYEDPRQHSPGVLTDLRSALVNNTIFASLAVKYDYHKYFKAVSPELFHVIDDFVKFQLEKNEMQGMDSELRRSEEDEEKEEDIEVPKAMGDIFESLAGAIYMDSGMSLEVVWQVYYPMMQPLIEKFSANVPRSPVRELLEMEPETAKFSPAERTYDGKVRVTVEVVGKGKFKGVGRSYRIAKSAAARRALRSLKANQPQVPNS
# UniProt Q8VE70: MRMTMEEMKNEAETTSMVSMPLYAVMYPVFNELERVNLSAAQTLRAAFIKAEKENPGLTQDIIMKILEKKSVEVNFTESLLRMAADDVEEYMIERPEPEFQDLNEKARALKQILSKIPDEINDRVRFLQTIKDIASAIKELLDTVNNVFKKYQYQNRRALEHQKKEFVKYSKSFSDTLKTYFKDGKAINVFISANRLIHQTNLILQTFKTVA
# UniProt Q8VC30: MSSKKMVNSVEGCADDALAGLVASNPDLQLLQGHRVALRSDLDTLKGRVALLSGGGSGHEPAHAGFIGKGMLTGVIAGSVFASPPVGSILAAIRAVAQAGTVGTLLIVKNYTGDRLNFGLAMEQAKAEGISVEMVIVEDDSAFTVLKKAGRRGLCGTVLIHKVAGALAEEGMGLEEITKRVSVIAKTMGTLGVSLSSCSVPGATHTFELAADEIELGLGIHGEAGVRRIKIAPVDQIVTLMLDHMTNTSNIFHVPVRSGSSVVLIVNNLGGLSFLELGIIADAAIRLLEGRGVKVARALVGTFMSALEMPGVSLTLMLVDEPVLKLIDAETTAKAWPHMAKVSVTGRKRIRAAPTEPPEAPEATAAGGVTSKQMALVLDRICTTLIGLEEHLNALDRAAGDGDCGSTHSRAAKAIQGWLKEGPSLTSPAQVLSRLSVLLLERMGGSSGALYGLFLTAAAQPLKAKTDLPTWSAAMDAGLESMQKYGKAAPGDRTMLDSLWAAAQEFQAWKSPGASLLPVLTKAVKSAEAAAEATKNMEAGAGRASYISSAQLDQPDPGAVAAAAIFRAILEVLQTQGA
# UniProt Q8VC48: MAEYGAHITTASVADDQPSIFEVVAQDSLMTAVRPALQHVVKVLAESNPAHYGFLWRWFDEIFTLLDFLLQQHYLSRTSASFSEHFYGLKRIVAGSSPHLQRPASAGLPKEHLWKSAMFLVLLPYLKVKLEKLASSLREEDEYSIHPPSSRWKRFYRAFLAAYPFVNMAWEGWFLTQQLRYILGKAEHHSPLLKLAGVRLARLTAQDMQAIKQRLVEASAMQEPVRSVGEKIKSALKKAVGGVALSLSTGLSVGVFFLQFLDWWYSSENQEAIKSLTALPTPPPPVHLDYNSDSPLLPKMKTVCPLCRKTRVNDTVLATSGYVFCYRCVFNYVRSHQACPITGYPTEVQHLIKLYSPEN
# UniProt Q8VDT9: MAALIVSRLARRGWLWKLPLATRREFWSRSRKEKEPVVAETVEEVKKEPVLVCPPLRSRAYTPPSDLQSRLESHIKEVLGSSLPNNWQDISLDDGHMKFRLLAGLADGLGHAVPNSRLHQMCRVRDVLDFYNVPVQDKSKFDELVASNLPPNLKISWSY
# Compound: CN[C@@H]1C[C@H]2O[C@@](C)([C@@H]1OC)n1c3ccccc3c3c4c(c5c6ccccc6n2c5c31)C(=O)NC4 [staurosporine]
# Assay: log2 fold change of tryptic peptide abundance, ligand vs vehicle (limited proteolysis) (log2 ratio); higher = more trypsin-susceptible (destabilized)
# Details: ligand concentration: 20 uM; sample: mouse liver crude lysate; replicate design: treated separately
row,Target,log2 fold change
1,"UniProt Q8R4U7 (peptide sequence: NASTFLER, peptide start residue: 231)",-0.2
2,"UniProt Q8R4Z4 (peptide sequence: KVEPSDLEDGSASDWHR, peptide start residue: 188)",0.728
3,"UniProt Q8VEE1 (peptide sequence: DGAPWCGR, peptide start residue: 291)",-0.402
4,"UniProt Q8R323 (peptide sequence: IEHQTITTPSKK, peptide start residue: 69)",-0.104
5,"UniProt Q8VBV3 (peptide sequence: HLVVPGDTITTDTGFMR, peptide start residue: 25)",0.31
6,"UniProt Q8VDI7 (peptide sequence: ILVSLIEVAQK, peptide start residue: 155)",0.129
7,"UniProt Q8R4C2 (peptide sequence: QLNSTVSSLHSR, peptide start residue: 215)",0.166
8,"UniProt Q8VEK6 (peptide sequence: KYNPTSHHAAADHIPEKK, peptide start residue: 148)",0.319
9,"UniProt Q8VDV3 (peptide sequence: GSEFLKEELYK, peptide start residue: 76)",0.517
10,"UniProt Q8R2U4 (peptide sequence: LLLPLFR, peptide start residue: 79)",-0.45
11,"UniProt Q8R3S6 (peptide sequence: QKYTDHLQSYVIYSLGQPLEK, peptide start residue: 757)",0.529
12,"UniProt Q8R5H1 (peptide sequence: MIVTDIYNHR, peptide start residue: 520)",0.383
13,"UniProt Q8R2V2 (peptide sequence: DDLGSNIHLLK, peptide start residue: 45)",0.376
14,"UniProt Q8VE09 (peptide sequence: KSTPSMVDR, peptide start residue: 117)",-0.318
15,"UniProt Q8VCA6 (peptide sequence: WANGLHDEKPLSVPR, peptide start residue: 64)",-0.117
16,"UniProt Q8VCE4 (peptide sequence: QELQGCSR, peptide start residue: 68)",-0.101
17,"UniProt Q8R3P7 (peptide sequence: TAMEVLMQGRPSKR, peptide start residue: 338)",0.283
18,"UniProt Q8R5K2 (peptide sequence: LGSLWPGLSPPHK, peptide start residue: 411)",-0.218

row,Target,log2 fold change
1,"UniProt Q8R4H7 (peptide sequence: LIVDVLSR, peptide start residue: 328)",0.151
2,"UniProt Q8R314 (peptide sequence: FSNIMEIR, peptide start residue: 196)",0.294
3,"UniProt Q8VC31 (peptide sequence: NWGGSDFER, peptide start residue: 220)",-0.127
4,"UniProt Q8R3L8 (peptide sequence: EFLTEEEPDEKGDKK, peptide start residue: 357)",-0.92
5,"UniProt Q8VE65 (peptide sequence: IAGTPGTGGR, peptide start residue: 40)",0.101
6,"UniProt Q8R409 (peptide sequence: EYLELEKCLSR, peptide start residue: 287)",-0.505
7,"UniProt Q8VEE4 (peptide sequence: FIVNTLKDGR, peptide start residue: 82)",0.493
8,"UniProt Q8VE10 (peptide sequence: KVMLTVFK, peptide start residue: 170)",0.251
9,"UniProt Q8R3P0 (peptide sequence: AGLDVKPFITNPR, peptide start residue: 43)",0.188
10,"UniProt Q8VCH8 (peptide sequence: IKQQIALDR, peptide start residue: 267)",0.116
11,"UniProt Q8R3Q6 (peptide sequence: NLDDLTLLKR, peptide start residue: 92)",0.23
12,"UniProt Q8R418 (peptide sequence: LPSDPFTHLAPK, peptide start residue: 641)",0.374
13,"UniProt Q8VBT9 (peptide sequence: QCDTAGKQESIAVR, peptide start residue: 174)",0.72
14,"UniProt Q8VE70 (peptide sequence: VNLSAAQTLR, peptide start residue: 36)",-0.0925
15,"UniProt Q8VC30 (peptide sequence: NYTGDRLNFGLAMEQAK, peptide start residue: 110)",-0.119
16,"UniProt Q8VC48 (peptide sequence: CVFNYVR, peptide start residue: 328)",-0.128
17,"UniProt Q8R3Q0 (peptide sequence: TASGYGGTR, peptide start residue: 324)",0.0264
18,"UniProt Q8VDT9 (peptide sequence: VRDVLDFYNVPVQDK, peptide start residue: 124)",-0.304

# Reformatted: results already given
row	Target	log2 fold change
11	UniProt Q8R3Q6 (peptide sequence: NLDDLTLLKR, peptide start residue: 92)	0.23
12	UniProt Q8R418 (peptide sequence: LPSDPFTHLAPK, peptide start residue: 641)	0.374

# From the supplement of paper PMC12819154, “High-throughput peptide-centric local stability assay extends protein–ligand identification to membrane proteins, tissues and bacteria” (Nature Structural & Molecular Biology, 2025)
